This is one part of the list. Further columns of the screen follow, without active or inactive calls. Most of these compounds were active or inconclusive in the main read-out, so they are no random draw. The note in brackets gives the kind of curve behind each potency; many fits are weak.
Test: qHTS Assay for Lipid Storage Modulators in Drosophila S3 Cells;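 for cell number change: cells counted by Cell Tracker Red CMTPX staining in the red channel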
Details: BODIPY lipid droplet fluorescence, 18-24 h; for cell number change: measured here: cell count max response, cells fed with added oleic acid
Method in brief: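 Drosophila S3 cells got compounds at several concentrations plus oleic acid (400 uM solution). Laser-scanning cytometry with 488 nm excitation read lipid droplets at 500-530 nm and cells at 575-640 nm. Percent activity was relative to 20 uM Triacsin C.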

[1] = measured here: lipid fluorescence (Fed channel) AC50, cells fed with added oleic acid
[2] = measured here: cell number channel AC50, cells fed with added oleic acid

Row | SMILES | cell number change | AC50 [1] | AC50 [2]
1 | COc1ccc(NC(=O)COC(=O)c2cccc(S(=O)(=O)N3CCCCC3)c2)c(OC)c1 | -6.59% | 6.51 µM [falling, single point] | 
2 | CCOC(=O)C1CCN(S(=O)(=O)CCNC(=O)c2ccc(F)cc2)CC1 | -5.98% | 9.2 µM [falling, partial curve, poor fit] | 
3 | Cc1ccc(/C=N\NC(=O)COc2ccc(C)cc2[N+](=O)[O-])cc1 |  | 0.731 µM [rising, full curve, poor fit] | 
4 | CCOC(=O)c1sc(C)c2c(=O)n(CC)nnc12 | 58.6% | 0.651 µM [rising, single point] | 23.1 µM [rising, single point]
5 | CCc1ccc(OCc2cccc(C(=O)N/N=C\c3cnn(C)c3C)c2)cc1 | -32% | 4.11 µM [falling, single point] | 25.9 µM [falling, single point]
6 | O=C(O)/C=C\c1cccc(-n2nnnc2SCc2ccccc2F)c1 | -21.1% |  | 0.146 µM [falling, full curve, poor fit]
7 | CN(C)c1nc(N2CCN(c3ccccc3)CC2)c(C#N)c(=O)o1 |  | 1.84 µM [rising, partial curve] | 1.64 µM [rising, partial curve]
8 | O=C(CSC1=NCCS1)Nc1ccnc2ccccc12 | -145% | 29.1 µM [falling, single point] | 
9 | Cc1ccc(CNC(=O)c2c(C)cc(=O)oc2C)cc1 |  | 2.06 µM [rising, partial curve] | 
10 | Cc1ccc2c(c1)N(CCC(=O)NCc1cccnc1)C(=O)CO2 | -26.2% |  | 0.00461 µM [falling, full curve, poor fit]
11 | Cc1ccc[n+](/C(C(=S)NCc2ccco2)=C(/[O-])c2ccccc2Cl)c1 |  | 6.51 µM [falling, partial curve] | 
12 | CCc1nc(SCC(=O)N2CCCCCC2)c2c(=O)n(C)c(=O)n(C)c2n1 | -31.1% | 0.731 µM [falling, full curve] | 0.58 µM [falling, full curve]
13 | CC1CCN(C(=O)CCc2nc3cc(S(=O)(=O)N(C)C)ccc3n2C)CC1 | -9.87% | 6.51 µM [rising, single point] | 
14 | COCCN(C(=S)Nc1ccccc1C)C(C)c1cccnc1 (stereo not given) |  | 4.11 µM [rising, partial curve] | 3.66 µM [rising, partial curve]
15 | CCC/C=C(\CCC)C(NC(=O)OCC(C)C)c1ccc(C(=O)OC)cc1 (stereo not given) | 23.7% | 16.4 µM [rising, partial curve] | 
16 | CC(=O)c1c(N2CCN(Cc3ccccc3)CC2)nc(=S)n(-c2ccccc2)c1C |  |  | 3.66 µM [rising, single point]
17 | CCc1nnc(NC(=O)c2sc3nc4c(cc3c2N)CCCCCC4)s1 | -66.5% | 9.2 µM [falling, partial curve] | 11.6 µM [falling, partial curve]
18 | Cc1ccc(S(=O)(=O)NCC(=O)N(CC(=O)NCc2ccco2)Cc2ccc3c(c2)OCO3)cc1 | -17.2% | 4.61 µM [rising, partial curve] | 
19 | CCOC(=O)c1[nH]cnc1C(=O)Nc1ccc(C)cc1 | 20.4% | 0.164 µM [rising, full curve, poor fit] | 

Copied from the list:
CC(=O)c1c(N2CCN(Cc3ccccc3)CC2)nc(=S)n(-c2ccccc2)c1C | AC50 [2]: 3.66 µM [rising, single point]
Cc1ccc(/C=N\NC(=O)COc2ccc(C)cc2[N+](=O)[O-])cc1 | AC50 [1]: 0.731 µM [rising, full curve, poor fit]
CCOC(=O)c1[nH]cnc1C(=O)Nc1ccc(C)cc1 | AC50 [1]: 0.164 µM [rising, full curve, poor fit]
O=C(O)/C=C\c1cccc(-n2nnnc2SCc2ccccc2F)c1 | AC50 [2]: 0.146 µM [falling, full curve, poor fit]

Next part:

Row | SMILES | cell number change | AC50 [1] | AC50 [2]
20 | CCOC(=O)CNC(=O)C1(/C=C/c2ccccc2)CC(=O)N1c1ccc(C)cc1 (stereo not given) | -5.56% |  | 
21 | CCOC(=O)N1CCC(NS(=O)(=O)c2cc(Br)cc3c2N(C(=O)CC)CC3)CC1 | -7.57% |  | 
22 | COc1ccc(N2C(=O)CCC(C(=O)Nc3ccccn3)C2c2ccc(OC)c(OC)c2)cc1 (stereo not given) | 32.4% | 20.6 µM [rising, single point] | 1.3 µM [rising, full curve, poor fit]
23 | Cc1cccc(C)c1OCC(=O)Nc1ccccc1C(=O)N1CCOCC1 | -9.25% |  | 
24 | CCOc1cccc(C(=O)Nc2cccc(-c3nnc(-c4ccc(C)cc4)o3)c2)c1 |  |  | 2.06 µM [falling, single point]
25 | CSCCC(NS(=O)(=O)c1ccc(Br)cc1)C(=O)OCC(=O)NC1CC1 (stereo not given) | 9.13% |  | 
26 | N#Cc1cc(C(=O)c2ccccc2O)cn(-c2ccc(Cl)cc2)c1=O | 25.4% |  | 
27 | Cc1cc(C)n2nc(SCc3nnc(-c4cccs4)o3)nc2n1 | 29.8% | 7.31 µM [falling, partial curve, poor fit] | 
28 | CC(C)Oc1ncnc2c1[nH]c1ccccc12 | -23.5% | 29.1 µM [falling, single point] | 
29 | O=C(NNc1cccc(Cl)n1)C(F)(F)F | 15% | 6.51 µM [falling, single point] | 
30 | OC1(c2cn(Cc3ccccc3)nn2)CCCCC1 | -30.3% |  | 23.1 µM [falling, single point]
31 | Cc1cc(NC(=O)CSc2nc3c(cc2C#N)CCC3)no1 | 19.4% | 29.1 µM [falling, single point] | 
32 | COc1cccc(N2CCN(CC(=O)Nc3ccccc3C(=O)NCc3ccccc3)CC2)c1 | -10.8% | 0.00461 µM [falling, full curve, poor fit] | 
33 | CSc1nc2cc(C)nn2c(-c2ccc(C(C)(C)C)cc2)c1C#N | 22.6% | 1.84 µM [rising, partial curve] | 2.91 µM [rising, partial curve]
34 | Cc1ccc(C(C[N+](=O)[O-])c2c(-c3ccccc3O)[nH][nH]c2=O)cc1 (stereo not given) | -32.5% | 29.1 µM [falling, single point] | 0.0291 µM [falling, full curve]
35 | CCCCCC1CCC(c2nnc(SCC(C)=O)o2)CC1 (stereo not given) | -15% | 6.51 µM [falling, single point] | 
36 | CCCCNC(=O)C1CCC(CNS(=O)(=O)c2ccc(C)cc2)CC1 (stereo not given) |  | 2.91 µM [falling, partial curve] | 
37 | Cc1cccc(NC(=S)NCC(c2cccnc2)N2CCOCC2)c1C (stereo not given) | 19.4% | 0.731 µM [rising, partial curve, poor fit] | 
38 | COc1ccc(C)cc1N(CC(=O)N1CCCCCC1)S(=O)(=O)c1ccc(C)cc1 | 7.04% | 0.0164 µM [falling, full curve, poor fit] | 

Row | SMILES | cell number change | AC50 [1] | AC50 [2]
39 | CCC(C)N1CC(C(=O)NC2CCCCC2)CC1=O (stereo not given) | 23.2% | 14.6 µM [rising, partial curve] | 1.64 µM [rising, full curve, poor fit]
40 | COc1ccc(N2CCN(C(CNC(=O)C3CCCCC3)c3ccco3)CC2)cc1 (stereo not given) |  | 0.164 µM [falling, full curve, poor fit] | 
41 | COc1ccc(NC(=O)C(OC)c2ccccc2)cc1Cl (stereo not given) |  | 13 µM [rising, partial curve, poor fit] | 
42 | CCOc1ccc(-n2cnc3sc4c(c3c2=O)CCCC4)cc1 | 9.07% | 6.51 µM [rising, partial curve, poor fit] | 0.164 µM [rising, full curve, poor fit]
43 | CC(C)(C)[C@H]1CCC(=O)N([C@H](CSc2ccc(Br)cc2)Cc2ccccc2)CC1 | 7.43% | 20.6 µM [rising, single point] | 
44 | O=C(NC(=S)NC1CCCCC1)c1ccc(F)cc1 | 28.1% | 2.31 µM [rising, partial curve, poor fit] | 
45 | COc1ccc(-c2noc(CCC(=O)Nc3nc4ccccc4s3)n2)cc1 | -13.3% | 0.13 µM [falling, full curve, poor fit] | 
46 | CCCOC(=O)C1C2C=CC(C3CC23)C1C(=O)OCC(=O)c1ccccc1 (stereo not given) | 39.3% |  | 25.9 µM [rising, single point]
47 | Cc1c(C(=O)OC(C)C)sc2nc[nH]c(=O)c12 | -28.1% | 0.13 µM [falling, full curve, poor fit] | 
48 | CC(=O)c1ccc(OCCCC(=O)N2CCN(S(=O)(=O)c3ccc(C(C)C)cc3)CC2)cc1 |  |  | 2.91 µM [rising, single point]
49 | CC(C)CN1CCN(Cc2ccc3ncccc3c2)CC1CCO (stereo not given) | 10.1% | 25.9 µM [rising, single point] | 
50 | CC(=O)c1ccc(-c2cc([C@H]3[C@H]4C=CC[C@@H](C)[C@@H]4C(=O)N3Cc3ccccc3)ccc2F)cc1 | -19.6% | 18.4 µM [falling, single point] | 
51 | CN(Cc1ccc(C(C)(C)C)cc1)C(=O)C1CSC2(C)CCC(=O)N12 (stereo not given) | 38.8% | 1.64 µM [rising, partial curve] | 32.6 µM [rising, single point]
52 | Cc1csc(SCC(=O)Nc2nc3ccccc3s2)n1 | 3.11% |  | 
53 | CCn1c(=O)[nH]c2cc(C(=O)N3CCN(c4ccccc4)CC3)ccc2c1=O | 12.2% | 29.1 µM [falling, single point] | 
54 | CCCCCCOc1ccc(N2C(=O)CC(N3CCN(CCN=CC4=C(O)CC(C)(C)CC4=O)CC3)C2=O)cc1 (stereo not given) | -30.6% | 0.00461 µM [falling, full curve, poor fit] | 
55 | COc1ccc(/C=N/n2c(=O)[nH]c3c([nH]c4ccc(F)cc43)c2=O)cc1CN1CCCCC1 | 18.3% |  | 7.31 µM [falling, partial curve, poor fit]
56 | Cc1cc(N2CCN(C)CC2)n2nc(-c3ccc(Cl)cc3)nc2n1 | 9.59% | 0.517 µM [rising, full curve, poor fit] | 
57 | C/C(=N/NC(N)=S)c1cc2ccc(O)cc2oc1=O | -15.3% | 0.651 µM [falling, full curve] | 2.06 µM [falling, partial curve, poor fit]

From PubChem BioAssay AID2685 (National Center for Advancing Translational Sciences (NCATS), 2010)
